{"source": "patent US7728039B2", "about": "“Biphenyl and Naphthyl-Phenyl Hydroxamic Acid Derivatives” (Sigma-Tau Industrie Farmaceutiche Riunite S.p.A., priority 2005, dated 2010)", "tested_on": "NCI-H460 R9A tumour cells (H460/(R9A), resistant to carboxylic acid-bearing compounds)", "assay": "Sulphorodamine B cytotoxicity test on ST1926-resistant NCI-H460 R9A cells", "assay_type": "cell-based", "settings": "H460/R9A versus sensitive NCI-H460", "procedure": "The cytotoxic effect of some biphenyl and phenylnaphthyl compounds bearing a hydroxamic acid group is reported herein. […] The chemical structures of the tested compounds of the invention and of the corresponding compounds bearing a carboxylic acid group are reported in FIG. 1.\nTumour cells were seeded in 96-well tissue culture plates at approximately 10% confluence and were allowed to attach and recover for at least 24 h. […] The plates were incubated for 24 h at 37° C. At the end of the treatment, for NB4 tumour cells in suspension, the procedure was performed as follows: medium culture was removed by centrifugation of the plates at 1600×g for 10 min and the surnatant was removed. 250 μl PBS were added, then the plates were centrifuged at 1600×g for 10 min, the surnatant was removed. 200 μl/well of medium culture RPMI 1640 containing 10% FCS were added and the plates were incubated at 37° C. for other 48 h. […] The survival cell was determined as optical density by a Multiskan spectrofluorimeter at 540 nm. […]\nThe amount of cells killed was calculated as the percentage decrease in sulphorodamine B binding compared with control cultures. […]\nTo evaluate the effect of the compound on survival cells, the sulphorodamine B test was used. The amount of cells killed was calculated as the percentage decrease in sulphorodamine B binding compared with control cultures.", "note": "Some entries share one result that the patent states for a list of compounds. For at least one compound, name, drawing or mass did not settle the structure. Some compounds share one range, which may span the group rather than tell each member."}
{"compound": "O=C(O)/C=C/c1ccc(-c2ccc(O)c(C34CC5CC(CC(C5)C3)C4)c2)cc1", "note": "[ST1926, E-3-(4′-hydroxy-3′-adamantylbiphenyl-4-yl)acrylic acid, reference compound]", "values": [{"measurement": "fold less effective on H460/R9A", "result": "34-78 fold"}]}
